± gives the standard deviation of the averaged measurements. The list shows a part of the results.
Compound: Nc1nc2c(ncn2[C@@H]2O[C@H](COP(=O)(O)OP(=O)(O)OP(=O)(O)O)[C@@H](O)[C@H]2O)c(=O)[nH]1 [guanosine triphosphate]
Experiment: NP40-soluble protein abundance relative to vehicle (solubility fold change) (ratio); higher = more soluble protein in presence of GTP
Method in brief: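 Values are fold changes against the detergent-processed vehicle, based on vsn-normalised intensities. Jurkat crude lysate was treated at eight concentrations from 0.1 to 10 mM (10 min at room temperature, then 3 min at 37 °C), solubilised with 0.8% NP40 and benzonase, ultracentrifuged and analysed by TMT-labelled LC-MS/MS over three independent experiments.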

The chains behind the UniProt entries cited, without tags or fusion partners. Where a name states a change or a piece, a line headed by the entry shows the natural chain unless it says otherwise.
UniProt P61224: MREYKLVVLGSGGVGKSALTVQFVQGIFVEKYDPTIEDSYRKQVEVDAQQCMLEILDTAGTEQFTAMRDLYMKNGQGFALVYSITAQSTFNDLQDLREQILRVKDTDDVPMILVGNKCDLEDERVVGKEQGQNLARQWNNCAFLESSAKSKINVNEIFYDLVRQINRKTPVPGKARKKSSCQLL
UniProt Q7KZI7: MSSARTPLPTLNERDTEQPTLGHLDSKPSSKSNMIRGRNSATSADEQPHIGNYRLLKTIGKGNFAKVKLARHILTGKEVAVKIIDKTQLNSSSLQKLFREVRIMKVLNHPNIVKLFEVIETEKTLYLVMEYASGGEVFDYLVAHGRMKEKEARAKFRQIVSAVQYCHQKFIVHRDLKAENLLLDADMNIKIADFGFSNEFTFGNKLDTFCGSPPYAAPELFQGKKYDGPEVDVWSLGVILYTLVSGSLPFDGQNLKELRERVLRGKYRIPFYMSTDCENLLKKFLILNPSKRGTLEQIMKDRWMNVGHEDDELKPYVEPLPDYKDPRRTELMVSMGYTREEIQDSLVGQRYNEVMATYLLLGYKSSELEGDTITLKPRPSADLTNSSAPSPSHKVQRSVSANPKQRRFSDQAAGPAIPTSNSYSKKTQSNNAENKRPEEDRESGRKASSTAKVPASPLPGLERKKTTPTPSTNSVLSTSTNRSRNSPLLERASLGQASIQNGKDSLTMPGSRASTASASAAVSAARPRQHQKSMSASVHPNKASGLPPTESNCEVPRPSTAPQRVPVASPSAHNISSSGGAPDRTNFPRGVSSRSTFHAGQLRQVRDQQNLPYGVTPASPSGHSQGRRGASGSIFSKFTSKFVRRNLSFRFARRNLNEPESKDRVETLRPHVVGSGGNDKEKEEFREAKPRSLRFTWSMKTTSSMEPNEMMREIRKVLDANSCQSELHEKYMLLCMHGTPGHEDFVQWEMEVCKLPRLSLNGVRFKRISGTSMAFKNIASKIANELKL
UniProt P12694: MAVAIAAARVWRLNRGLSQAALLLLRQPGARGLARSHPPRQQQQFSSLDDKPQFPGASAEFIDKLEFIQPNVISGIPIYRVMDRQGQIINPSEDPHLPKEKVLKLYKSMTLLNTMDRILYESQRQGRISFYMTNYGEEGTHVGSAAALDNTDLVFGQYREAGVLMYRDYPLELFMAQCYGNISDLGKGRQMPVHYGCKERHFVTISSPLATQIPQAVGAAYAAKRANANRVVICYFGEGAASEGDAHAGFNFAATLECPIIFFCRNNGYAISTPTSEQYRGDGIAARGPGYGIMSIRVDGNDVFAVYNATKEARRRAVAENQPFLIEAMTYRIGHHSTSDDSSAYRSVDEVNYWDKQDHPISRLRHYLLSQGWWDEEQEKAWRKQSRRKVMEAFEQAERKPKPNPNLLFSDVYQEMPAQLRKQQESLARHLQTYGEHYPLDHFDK
UniProt Q13952: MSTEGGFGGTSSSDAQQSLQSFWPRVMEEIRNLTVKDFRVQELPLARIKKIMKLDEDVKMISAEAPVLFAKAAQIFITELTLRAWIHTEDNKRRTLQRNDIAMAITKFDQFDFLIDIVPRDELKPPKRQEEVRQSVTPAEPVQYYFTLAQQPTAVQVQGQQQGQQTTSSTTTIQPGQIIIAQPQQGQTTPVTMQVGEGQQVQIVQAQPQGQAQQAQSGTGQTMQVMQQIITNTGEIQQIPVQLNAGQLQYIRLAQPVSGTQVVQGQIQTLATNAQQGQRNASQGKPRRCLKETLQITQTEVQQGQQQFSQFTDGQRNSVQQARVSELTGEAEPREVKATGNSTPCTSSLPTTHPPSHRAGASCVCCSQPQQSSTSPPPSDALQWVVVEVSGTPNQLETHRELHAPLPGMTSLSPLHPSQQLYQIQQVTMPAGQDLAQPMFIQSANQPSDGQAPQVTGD
UniProt O95249: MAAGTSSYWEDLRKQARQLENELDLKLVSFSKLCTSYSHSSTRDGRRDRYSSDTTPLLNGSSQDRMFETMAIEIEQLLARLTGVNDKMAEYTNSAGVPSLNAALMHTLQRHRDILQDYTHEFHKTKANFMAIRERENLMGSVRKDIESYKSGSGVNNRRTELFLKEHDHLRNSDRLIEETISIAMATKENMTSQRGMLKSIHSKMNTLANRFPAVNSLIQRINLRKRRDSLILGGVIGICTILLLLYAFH
UniProt Q8NEM7: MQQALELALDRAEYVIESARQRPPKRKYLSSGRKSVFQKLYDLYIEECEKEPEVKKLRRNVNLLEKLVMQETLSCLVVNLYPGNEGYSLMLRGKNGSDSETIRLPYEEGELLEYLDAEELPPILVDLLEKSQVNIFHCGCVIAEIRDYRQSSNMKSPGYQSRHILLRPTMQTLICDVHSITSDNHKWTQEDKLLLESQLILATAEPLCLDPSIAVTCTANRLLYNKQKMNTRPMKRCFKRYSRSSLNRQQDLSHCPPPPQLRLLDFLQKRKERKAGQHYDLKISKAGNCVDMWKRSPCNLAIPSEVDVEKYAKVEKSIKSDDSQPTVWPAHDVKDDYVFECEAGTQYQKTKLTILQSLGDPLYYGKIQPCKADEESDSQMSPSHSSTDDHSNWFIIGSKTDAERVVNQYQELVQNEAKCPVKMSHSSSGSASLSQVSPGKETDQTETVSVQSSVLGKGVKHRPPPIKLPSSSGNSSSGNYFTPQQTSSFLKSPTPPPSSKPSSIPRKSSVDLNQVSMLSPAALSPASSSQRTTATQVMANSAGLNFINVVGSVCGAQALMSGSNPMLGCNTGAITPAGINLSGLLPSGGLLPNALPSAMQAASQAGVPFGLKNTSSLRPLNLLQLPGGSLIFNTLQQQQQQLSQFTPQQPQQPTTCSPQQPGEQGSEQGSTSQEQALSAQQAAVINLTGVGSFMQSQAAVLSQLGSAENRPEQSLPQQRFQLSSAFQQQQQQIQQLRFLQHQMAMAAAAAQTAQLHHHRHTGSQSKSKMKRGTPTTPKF
UniProt O00764: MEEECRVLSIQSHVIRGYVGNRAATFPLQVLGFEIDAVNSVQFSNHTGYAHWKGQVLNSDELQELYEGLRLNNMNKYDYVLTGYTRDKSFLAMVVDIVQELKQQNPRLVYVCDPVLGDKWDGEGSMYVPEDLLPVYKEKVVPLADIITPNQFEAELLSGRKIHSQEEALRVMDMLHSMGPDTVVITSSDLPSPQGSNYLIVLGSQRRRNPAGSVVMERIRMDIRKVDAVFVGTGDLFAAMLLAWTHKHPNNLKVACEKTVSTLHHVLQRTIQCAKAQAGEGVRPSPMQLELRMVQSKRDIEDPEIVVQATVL
UniProt Q8WYH8, whole entry: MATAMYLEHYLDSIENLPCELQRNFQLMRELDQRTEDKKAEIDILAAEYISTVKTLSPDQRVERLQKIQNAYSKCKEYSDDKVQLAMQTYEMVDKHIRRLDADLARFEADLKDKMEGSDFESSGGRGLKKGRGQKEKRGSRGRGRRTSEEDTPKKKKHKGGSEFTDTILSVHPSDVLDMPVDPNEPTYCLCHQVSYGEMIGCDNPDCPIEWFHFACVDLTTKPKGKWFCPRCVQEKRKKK
UniProt Q15436: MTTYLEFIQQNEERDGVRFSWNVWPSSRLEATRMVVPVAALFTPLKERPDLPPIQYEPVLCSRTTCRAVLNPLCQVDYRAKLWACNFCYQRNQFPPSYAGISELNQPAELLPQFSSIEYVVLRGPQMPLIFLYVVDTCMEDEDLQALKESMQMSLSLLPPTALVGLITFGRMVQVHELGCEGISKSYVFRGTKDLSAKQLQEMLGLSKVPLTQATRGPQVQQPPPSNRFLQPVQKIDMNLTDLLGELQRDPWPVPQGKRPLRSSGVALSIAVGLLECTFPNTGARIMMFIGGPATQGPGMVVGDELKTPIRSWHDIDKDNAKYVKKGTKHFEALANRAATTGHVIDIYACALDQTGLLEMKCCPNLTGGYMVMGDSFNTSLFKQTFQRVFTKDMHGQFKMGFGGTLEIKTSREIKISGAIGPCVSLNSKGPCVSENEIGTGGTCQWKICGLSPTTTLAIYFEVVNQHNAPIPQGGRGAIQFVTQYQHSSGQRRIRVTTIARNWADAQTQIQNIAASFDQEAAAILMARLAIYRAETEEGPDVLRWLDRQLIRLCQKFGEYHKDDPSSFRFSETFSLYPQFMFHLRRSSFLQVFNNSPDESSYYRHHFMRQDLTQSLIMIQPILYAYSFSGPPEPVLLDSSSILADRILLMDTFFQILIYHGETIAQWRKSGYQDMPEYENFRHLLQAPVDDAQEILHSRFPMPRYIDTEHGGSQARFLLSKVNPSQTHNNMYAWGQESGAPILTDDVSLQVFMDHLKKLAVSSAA
UniProt A2RUS2: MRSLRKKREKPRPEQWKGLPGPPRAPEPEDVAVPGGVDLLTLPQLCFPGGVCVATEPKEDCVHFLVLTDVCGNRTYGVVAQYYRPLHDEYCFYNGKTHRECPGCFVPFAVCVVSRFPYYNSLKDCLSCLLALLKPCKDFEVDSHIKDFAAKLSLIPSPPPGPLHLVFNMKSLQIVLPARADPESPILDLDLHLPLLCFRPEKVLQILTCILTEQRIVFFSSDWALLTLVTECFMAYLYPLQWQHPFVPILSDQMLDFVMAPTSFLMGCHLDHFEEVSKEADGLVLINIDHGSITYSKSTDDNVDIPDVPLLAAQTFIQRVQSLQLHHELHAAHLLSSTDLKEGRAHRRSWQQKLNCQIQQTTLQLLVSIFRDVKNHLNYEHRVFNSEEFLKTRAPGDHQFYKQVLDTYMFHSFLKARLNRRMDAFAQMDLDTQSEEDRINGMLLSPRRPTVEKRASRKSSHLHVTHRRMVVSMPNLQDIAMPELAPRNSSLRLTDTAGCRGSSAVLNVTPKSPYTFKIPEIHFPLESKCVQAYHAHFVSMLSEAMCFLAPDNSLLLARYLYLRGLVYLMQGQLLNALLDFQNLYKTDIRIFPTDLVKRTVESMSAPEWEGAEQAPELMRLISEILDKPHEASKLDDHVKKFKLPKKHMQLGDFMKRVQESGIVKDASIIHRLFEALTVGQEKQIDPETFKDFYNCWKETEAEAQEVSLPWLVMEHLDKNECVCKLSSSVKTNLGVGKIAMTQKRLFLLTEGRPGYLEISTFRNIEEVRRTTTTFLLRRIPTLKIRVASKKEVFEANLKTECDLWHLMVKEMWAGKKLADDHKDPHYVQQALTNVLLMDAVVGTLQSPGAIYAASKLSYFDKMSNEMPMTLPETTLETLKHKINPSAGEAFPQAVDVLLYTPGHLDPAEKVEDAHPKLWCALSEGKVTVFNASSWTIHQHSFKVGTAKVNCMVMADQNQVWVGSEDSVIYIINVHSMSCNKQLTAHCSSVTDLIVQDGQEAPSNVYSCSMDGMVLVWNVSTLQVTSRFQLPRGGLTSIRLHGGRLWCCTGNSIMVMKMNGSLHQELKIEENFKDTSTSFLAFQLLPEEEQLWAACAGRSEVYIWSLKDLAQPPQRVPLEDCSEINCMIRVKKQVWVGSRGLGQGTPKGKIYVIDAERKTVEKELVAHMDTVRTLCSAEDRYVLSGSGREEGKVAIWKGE
UniProt P56202: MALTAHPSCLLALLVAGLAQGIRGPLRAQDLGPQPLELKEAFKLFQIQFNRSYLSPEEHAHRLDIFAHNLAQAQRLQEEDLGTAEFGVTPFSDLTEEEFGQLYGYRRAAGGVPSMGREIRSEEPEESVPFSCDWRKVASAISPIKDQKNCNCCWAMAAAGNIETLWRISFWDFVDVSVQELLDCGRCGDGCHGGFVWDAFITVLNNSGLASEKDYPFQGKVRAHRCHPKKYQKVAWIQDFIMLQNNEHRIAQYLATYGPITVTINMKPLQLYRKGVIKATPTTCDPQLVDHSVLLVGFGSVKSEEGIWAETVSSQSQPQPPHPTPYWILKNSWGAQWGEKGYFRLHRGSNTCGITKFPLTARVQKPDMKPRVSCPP
UniProt Q96RQ3: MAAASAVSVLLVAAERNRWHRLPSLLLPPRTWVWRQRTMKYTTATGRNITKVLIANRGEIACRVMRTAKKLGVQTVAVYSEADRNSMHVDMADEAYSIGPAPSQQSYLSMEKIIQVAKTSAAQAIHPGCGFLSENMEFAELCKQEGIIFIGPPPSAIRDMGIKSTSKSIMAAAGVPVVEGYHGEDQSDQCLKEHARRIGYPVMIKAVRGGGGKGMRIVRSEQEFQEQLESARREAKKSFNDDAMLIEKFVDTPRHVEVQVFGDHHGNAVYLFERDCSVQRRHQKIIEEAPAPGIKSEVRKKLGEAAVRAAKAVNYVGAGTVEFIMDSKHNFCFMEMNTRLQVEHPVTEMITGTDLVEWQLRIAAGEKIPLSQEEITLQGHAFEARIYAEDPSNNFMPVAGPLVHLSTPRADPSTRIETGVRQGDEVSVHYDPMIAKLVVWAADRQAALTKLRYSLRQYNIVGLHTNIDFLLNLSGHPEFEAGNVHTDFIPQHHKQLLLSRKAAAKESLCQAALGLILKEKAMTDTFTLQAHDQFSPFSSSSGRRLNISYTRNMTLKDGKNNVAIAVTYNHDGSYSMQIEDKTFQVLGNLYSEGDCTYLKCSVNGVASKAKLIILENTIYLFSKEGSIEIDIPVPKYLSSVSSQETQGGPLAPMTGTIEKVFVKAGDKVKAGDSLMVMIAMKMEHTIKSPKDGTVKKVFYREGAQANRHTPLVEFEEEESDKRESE

Row | Target | NP40-soluble protein abundance (concentration: 0.1mM) | NP40-soluble protein abundance (concentration: 0.5mM) | NP40-soluble protein abundance (concentration: 1mM) | NP40-soluble protein abundance (concentration: 2mM) | NP40-soluble protein abundance (concentration: 4mM) | NP40-soluble protein abundance (concentration: 6mM) | NP40-soluble protein abundance (concentration: 8mM) | NP40-soluble protein abundance (concentration: 10mM)
1 | E9PGC0 and related entries (UniProt P20936) | 1.05 ± 0.069 | 1.04 ± 0.091 | 1.02 ± 0.11 | 0.997 ± 0.072 | 0.909 ± 0.027 | 0.931 ± 0.032 | 0.961 ± 0.048 | 0.899 ± 0.031
2 | F5GZG1 and related entries (UniProt P61224) | 0.897 ± 0.16 | 0.931 ± 0.16 | 0.884 ± 0.14 | 0.848 ± 0.14 | 0.88 ± 0.14 | 0.869 ± 0.14 | 0.885 ± 0.15 | 0.907 ± 0.17
3 | E9PJH7 and related entries (UniProt Q9H936) | 1.08 ± 0.049 | 1.05 ± 0.078 | 1 ± 0.044 | 1.02 ± 0.11 | 1.07 ± 0.095 | 1.04 ± 0.1 | 1.02 ± 0.043 | 1 ± 0.039
4 | E9PC69 and related entries (UniProt Q7KZI7) | 1.04 ± 0.074 | 1.09 ± 0.17 | 1.17 ± 0.28 | 1.17 ± 0.24 | 1.18 ± 0.27 | 1.16 ± 0.22 | 1.18 ± 0.35 | 1.16 ± 0.3
5 | E7ESS2 and related entries (UniProt O95819) | 0.979 ± 0.061 | 1.01 ± 0.07 | 0.99 ± 0.067 | 0.97 ± 0.077 | 0.968 ± 0.064 | 0.976 ± 0.059 | 1.01 ± 0.054 | 0.996 ± 0.06
6 | E7EW84 and related entries (UniProt Q8TAG9) | 0.9794 ± 0.0039 | 0.996 ± 0.039 | 0.959 ± 0.064 | 1.08 ± 0.082 | 1.01 ± 0.12 | 0.897 ± 0.022 | 0.882 ± 0.025 | 0.966 ± 0.18
7 | F5H5P2 and related entries (UniProt P12694+F5H5P2) | 1.01 ± 0.061 | 0.969 ± 0.053 | 0.975 ± 0.017 | 1.01 ± 0.042 | 1.11 ± 0.05 | 1.12 ± 0.082 | 1.12 ± 0.11 | 1.08 ± 0.021
8 | E9PI99 and related entries (UniProt Q13952) | 0.889 ± 0.014 | 0.887 ± 0.037 | 0.929 ± 0.025 | 0.925 ± 0.021 | 0.945 ± 0.039 | 0.928 ± 0.025 | 0.892 ± 0.035 | 0.919 ± 0.031
9 | G5E953 and related entries (UniProt Q13615) | 1.01 ± 0.036 | 0.987 ± 0.04 | 0.978 ± 0.063 | 0.953 ± 0.034 | 0.976 ± 0.045 | 0.963 ± 0.065 | 1 ± 0.042 | 0.971 ± 0.028
10 | F8WCF6 and related entries (UniProt P59998) | 1 ± 0.062 | 1.04 ± 0.085 | 0.945 ± 0.053 | 0.96 ± 0.092 | 0.913 ± 0.068 | 0.929 ± 0.056 | 0.881 ± 0.043 | 0.864 ± 0.042
11 | E9PCW1 and related entries (UniProt O95249) | 0.877 ± 0.026 | 0.954 ± 0.029 | 0.961 ± 0.004 | 0.979 ± 0.053 | 0.924 ± 0.028 | 1.01 ± 0.067 | 0.945 ± 0.052 | 0.97 ± 0.034
12 | F6TDL0 and related entries (UniProt Q92569) | 1.1 ± 0.17 | 1.11 ± 0.25 | 1.1 ± 0.22 | 0.975 ± 0.16 | 0.937 ± 0.19 | 0.983 ± 0.2 | 0.984 ± 0.14 | 0.971 ± 0.081
13 | F6S7C4 and related entries (UniProt Q8NEM7) | 1.23 ± 0.04 | 1.22 ± 0.089 | 1.21 ± 0.11 | 1.29 ± 0.038 | 1.43 ± 0.071 | 1.42 ± 0.058 | 1.37 ± 0.087 | 1.38 ± 0.088
14 | F2Z2Y4 and related entries (UniProt O00764) | 1 ± 0.072 | 1.01 ± 0.09 | 0.942 ± 0.055 | 0.918 ± 0.095 | 0.905 ± 0.071 | 0.91 ± 0.08 | 0.88 ± 0.063 | 0.868 ± 0.086
15 | F2Z2X4 and related entries (UniProt Q9C0E2) | 1.03 ± 0.034 | 1.05 ± 0.12 | 1.04 ± 0.14 | 1.02 ± 0.075 | 0.969 ± 0.12 | 0.996 ± 0.13 | 0.913 ± 0.05 | 0.881 ± 0.046
16 | E9PKC0 and related entries (UniProt Q6IQ23) | 1.03 ± 0.024 | 1.06 ± 0.055 | 1.11 ± 0.052 | 1.16 ± 0.062 | 1.21 ± 0.085 | 1.22 ± 0.074 | 1.24 ± 0.11 | 1.25 ± 0.13
17 | G3V3M6 and related entries (UniProt P27695) | 0.908 ± 0.092 | 0.953 ± 0.12 | 0.898 ± 0.1 | 0.877 ± 0.1 | 0.866 ± 0.1 | 0.891 ± 0.089 | 0.872 ± 0.095 | 0.88 ± 0.11
18 | E9PEN0 and related entries (UniProt Q8WYH8) | 1.1 ± 0.098 | 1.07 ± 0.16 | 1.26 ± 0.41 | 1.19 ± 0.26 | 1.33 ± 0.3 | 1.5 ± 0.35 | 1.48 ± 0.39 | 2 ± 0.59
19 | F5H365 and related entries (UniProt Q15436) | 1.02 ± 0.012 | 1.03 ± 0.047 | 0.959 ± 0.028 | 0.978 ± 0.038 | 0.996 ± 0.033 | 0.963 ± 0.054 | 0.93 ± 0.038 | 0.906 ± 0.022
20 | F5H8D7 and related entries (UniProt P18887) | 0.976 ± 0.073 | 1.02 ± 0.085 | 1.04 ± 0.081 | 1 ± 0.1 | 1.03 ± 0.098 | 1.06 ± 0.1 | 1.13 ± 0.1 | 1.1 ± 0.12
21 | E9PFW2 and related entries (UniProt O00462) | 1.04 ± 0.034 | 1.03 ± 0.088 | 0.962 ± 0.088 | 0.926 ± 0.1 | 1.03 ± 0.031 | 0.891 ± 0.085 | 1.017 ± 0.009 | 0.984 ± 0.12
22 | E9PLV1 and related entries (UniProt Q9NQV6) | 1.07 ± 0.12 | 1.18 ± 0.14 | 1.07 ± 0.13 | 1.08 ± 0.16 | 1.0337 ± 0.00049 | 1.05 ± 0.018 | 1.02 ± 0.07 | 0.98 ± 0.026
23 | E9PF32 and related entries (UniProt A2RUS2) | 1.1 ± 0.17 | 1.13 ± 0.069 | 1.05 ± 0.038 | 1.1 ± 0.19 | 1.1 ± 0.12 | 1.1 ± 0.011 | 1 ± 0.14 | 1.01 ± 0.11
24 | E9PGT3 and related entries (UniProt Q15418) | 1.02 ± 0.062 | 1.06 ± 0.066 | 0.99 ± 0.057 | 0.976 ± 0.071 | 0.995 ± 0.089 | 0.962 ± 0.061 | 0.941 ± 0.019 | 0.892 ± 0.07
25 | E9PI30 and related entries (UniProt P56202) | 0.976 ± 0.083 | 1.01 ± 0.08 | 0.982 ± 0.15 | 0.969 ± 0.057 | 0.973 ± 0.082 | 0.988 ± 0.12 | 1.02 ± 0.084 | 1.02 ± 0.021
26 | E9PG35 and related entries (UniProt Q96RQ3) | 1.04 ± 0.093 | 1.07 ± 0.078 | 1.02 ± 0.16 | 1.08 ± 0.11 | 1.09 ± 0.15 | 1.08 ± 0.077 | 1.05 ± 0.19 | 1.03 ± 0.13

Quoted from above, nos. 2–3
Row | Target | NP40-soluble protein abundance (concentration: 0.1mM) | NP40-soluble protein abundance (concentration: 0.5mM) | NP40-soluble protein abundance (concentration: 1mM) | NP40-soluble protein abundance (concentration: 2mM) | NP40-soluble protein abundance (concentration: 4mM) | NP40-soluble protein abundance (concentration: 6mM) | NP40-soluble protein abundance (concentration: 8mM) | NP40-soluble protein abundance (concentration: 10mM)
2 | F5GZG1 and related entries (UniProt P61224) | 0.897 ± 0.16 | 0.931 ± 0.16 | 0.884 ± 0.14 | 0.848 ± 0.14 | 0.88 ± 0.14 | 0.869 ± 0.14 | 0.885 ± 0.15 | 0.907 ± 0.17
3 | E9PJH7 and related entries (UniProt Q9H936) | 1.08 ± 0.049 | 1.05 ± 0.078 | 1 ± 0.044 | 1.02 ± 0.11 | 1.07 ± 0.095 | 1.04 ± 0.1 | 1.02 ± 0.043 | 1 ± 0.039
